Test [1] deals with T1, recombinant CLECL1 (rCLECL1) protein (human) (UniProt Q8IZS7).
T1 sequence: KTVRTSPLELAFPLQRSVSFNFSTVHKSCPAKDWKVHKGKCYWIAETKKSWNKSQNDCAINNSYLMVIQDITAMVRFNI
The experiment in a line: ELISA on rCLECL1 protein (FIG. 8D). A general note: ELISA stands for enzyme-linked immunosorbent assay.

Test [2] has as its target T1, recombinant CLECL1 (rCLECL1) protein (human). Description: hybridoma screening, cross reactivities (FIG. 10).

No constants are given. Whether binding was seen depends on the method and setting. Some entries that bind do so weakly or less than the wild type.

B1: mAb 243.6 (antibody, mouse IgG1, V domains shown)
VH: EVQLQQSGTVLVRSGASVKLSCTASGFNIKEYYIHWVKQRPEQGLEWIAWIDLENGESEYAPKFQGKATLTADTSSNTAYLQLSGLTSEDTAVYYCNAFHGNYAHNYAIDYWGQGTSVTVSQ
VL: DIVMSQSPSSLAVSAGEKVTMTCKSSQSLLNSRTRKNYLAWYQQKPGQSPKLLIYWASTRKSGVPDRFTGSGSGTDFTLTISSVQAEDLAVYYCKQSYNLRTFGGGTKLEIK
notes: also called 243.6.1
Turning to B1, the binding result in test [1] and in test [2] was “binds” throughout.

B2: mAb 17.2 (antibody, mouse IgG1, V domains shown)
VH: EVQLQQSGAELVRSGASVKLSCTTSGFNIKDFYIHWVRQRPEQGLEWIGWIDPKNDDTEYAPRFQGKATVTADTSSNTAYLHLSGLTSEDTAVYYCNGRYPTMDFWGQGTSVT
VL: EIVLTQSPITMTTSPGEKITITCSASSSISSHYLHWYQQKPGFSPKLLIYRASNLASGVPTRFSGSGSGTSYSLTIDTMEAEDVATYFCQQGSSLPLTFGAGTKLELK
notes: also called 17.2.3; hybridoma #17
B2: the binding result in test [1] and in test [2] was “binds” in each case.
